These are literature values, as cited in patent US11971405B2, “Nanosensors and methods of making and using nanosensors” (Board of Regents, The University of Texas System, priority 2017, dated 2024).

A word on the pIC50: it is the negative decadic logarithm of the IC50, by convention in mol/L.

pIC50: −log10 of the molar value.

In this data set the test system is PC9 (mutant, Sigma-Aldrich) cell line. The conditions noted are these: PC9 cell line (mutant EGFR).

For `COc1cc2ncnc(Nc3ccc(F)c(Cl)c3)c2cc1OCCCN1CCOCC1` [Gefitinib], the pIC50 was 8.40.
